This assay has as its target Monkey 4-1BB extracellular region recombinant protein (his-tag) (monkey). The experiment in a line: ELISA, coated antigen.

No constants are given. Whether binding was seen depends on the method and setting. Binding calls can cover weak binding; strength is not graded here.

B1: 137-18 VHH-hFc recombinant antibody (Fc fusion, not shown: a dimerising Fc or GST)
chain: QVQLVESGGGLVHPGGSLRLSCAASGFIFSLYTMSWVRQAPGKGLEWVSDINSGGDSTDYADSVKGRFTISRDNAKSTLYLQMNSLKPEDTAVYYCAKDYPLGQREDYWGQGTQVTVSS
In the case of B1, the binding entry is reported as “binds”.

B2: 137-12 VHH-hFc recombinant antibody (Fc fusion, not shown: a dimerising Fc or GST)
chain: QVQLVESGGGLVHPGGSLRLSCAASGFTLDDSAIGWFRQAPGKEREGVSCRSRSGYMTKYADSVKGRFTISRYNANNTMYLQMNSLKPEDTAVYYCATTRRGYCSGYETKGVDYWGQGIQVTVSS
Take B2: the binding entry was “binds”.

B3: 137-7 VHH-hFc recombinant antibody (Fc fusion, not shown: a dimerising Fc or GST)
chain: QVQLVESGGGLVQPGGSLRLSCAASGFTLDSYAIAWFRQAPGKEREGVSCITSSGGSTNYADSVKGRFTISRDGAKNTVYLQLNSLKPEDTAIYYCAAFHRATCVILGEYDYWGQGTQVTVSS
For the molecule B3, the binding result is on record as “binds”.

B4: 137-16 VHH-hFc recombinant antibody (Fc fusion, not shown: a dimerising Fc or GST)
chain: EVQLVESGGGLVQAGASLTLSCVISGRTFSSYAMGWYRQAPGKERAFVGTITWNNDIIYSDSVKGRFTISTDDGKNTMYLQMNNLKPEDTAVYYCAAYSVPYGDFCTLNYDLMDYWGKGTLVTVSS
Take B4: the binding result was “binds”.

B5: 137-1 VHH-hFc recombinant antibody (Fc fusion, not shown: a dimerising Fc or GST)
chain: QVQLVESGGGLVQPGGSLRLSCVASGFVFSTVTMGWGRQVPGKEFEWVSGVSSEGITDYADSVKGRFTISRDNAKNTVYLEMNSLKSEDTAEYYCLIGGRWSFGTWGQGTQVTVSS
Consider B5, for which the binding result is on record as “binds”.

B6: 137-39 VHH-hFc recombinant antibody (Fc fusion, not shown: a dimerising Fc or GST)
chain: QVQLVESGGGLVHVGESLTLSCVISGGSSNLYGIGWYRQAPGQERKLVAVLHNEHTTKYLDSVKGRFFVSGDNAKNTLYLHMNNVKVEDTAVYYCNSASGTLAGTGYFASVGPWGQGTLVTVSS
Turning to B6, the binding result is “binds”.

B7: 137-36 VHH-hFc recombinant antibody (Fc fusion, not shown: a dimerising Fc or GST)
chain: QVQLVESGGGLVQTGGSLTLSCVASGRRFEAYTIGWLRQAPGDLREGVGCIFGGTTFTGYDDSVKGRFTISRDTAKNTVYLRMNNLTSEDTATYYCAAEGRPGQIKGQHGCLTPSWYNYKGQGTQVTVSS
As for B7, the binding entry is reported as “binds”.

For the origin of these results see patent EP4592317A1.
